Measured data: PubChem BioAssay AID1259405 (NCATS, 2018)

Screen: 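Silenced genes that increase secreted GFP made by CHO cells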 (primary screen)
Cell system: Chinese hamster CHO-K1 ovary cells with stable secreted eGFP expression
Reagent: single siRNA against mouse genes, 0.8 pmol siRNA per well (2 µl of 400 nM stock)
Timing: 3 days
Measured: 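Percent of the per-plate non-targeting control median for intracellular GFP per well by laser scanning cytometry and for cell viability by ATP luminescence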
Reading the numbers: GFP, % of control: higher = more GFP per well, higher productivity; viability (ATP), % of control: higher = more viable cells (more ATP)
Hit rule: 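a knock-down is called active if GFP reaches 120% or more of non-targeting control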
Here is one part, drawn at random, of about 50,000 reagents. About 4,000 of all reagents (8%) were called active. 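Mouse siRNA library applied to hamster cells; one well for each siRNA.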 Unmarked entries are inactive. Reagents against one gene are numbered here. No sequences are given here.

no.	gene	reagent	GFP, % of control	viability (ATP), % of control
1	Macroh2a2 (GeneID 404634)	1	73.6	86.6
2	Macroh2a2 (GeneID 404634)	2	77.8	107
3	Macroh2a2 (GeneID 404634)	3	47	46.3
4	Qdpr (GeneID 110391)	1	81.7	100
5	Qdpr (GeneID 110391)	2	39.4	63.8
6	Qdpr (GeneID 110391)	3	73	67
7	Or13c3 (GeneID 258821)	1	81.6	77.2
8	Or13c3 (GeneID 258821)	2	114	75.3
9	Or13c3 (GeneID 258821)	3	81.9	97.4
10	Fut4 (GeneID 14345)	1	102	108
11	Fut4 (GeneID 14345)	2	83.4	113
12	Fut4 (GeneID 14345)	3	89.4	123
13	Slc35a2 (GeneID 22232)	1	147 (active)	72.6
14	Slc35a2 (GeneID 22232)	2	39.1	34.3
15	Slc35a2 (GeneID 22232)	3	83.9	72.8
16	Zfp385a (GeneID 29813)	1	111	99.8
17	Zfp385a (GeneID 29813)	2	86.5	99.6
18	Zfp385a (GeneID 29813)	3	57	64.4
19	Ehhadh (GeneID 74147)	1	80.8	78.1
20	Ehhadh (GeneID 74147)	2	64.3	68.1
21	Ehhadh (GeneID 74147)	3	104	64.3
22	Or51ah3 (GeneID 259084)	1	18.1	15.7
23	Or51ah3 (GeneID 259084)	2	89.7	100
24	Or51ah3 (GeneID 259084)	3	52.3	56.5
25	Derl1 (GeneID 67819)	1	75	93.7
26	Derl1 (GeneID 67819)	2	79.9	69.7
27	Derl1 (GeneID 67819)	3	64.8	88.9
28	Frat2 (GeneID 212398)	1	70.1	69.4
29	Frat2 (GeneID 212398)	2	50.2	73.6
30	Frat2 (GeneID 212398)	3	73.3	78.3
31	Allc (GeneID 94041)	1	65.8	23.9
32	Allc (GeneID 94041)	2	89	90.6
33	Allc (GeneID 94041)	3	43.5	42.6
34	Rhox12 (GeneID 382282)	1	82.5	71.6
35	Rhox12 (GeneID 382282)	2	79.8	78.1
36	Rhox12 (GeneID 382282)	3	59.5	49.1
37	Rps29 (GeneID 20090)	1	108	58.7
38	Rps29 (GeneID 20090)	2	31.8	25.3
39	Rps29 (GeneID 20090)	3	57.5	78.6
40	6030445D17Rik (GeneID 320133)	1	56.2	67.2
41	6030445D17Rik (GeneID 320133)	2	94.2	102
42	6030445D17Rik (GeneID 320133)	3	120 (active)	124
43	Vmn1r85 (GeneID 252909)	1	64.5	48.3
44	Vmn1r85 (GeneID 252909)	2	54.5	60.5
45	Vmn1r85 (GeneID 252909)	3	47	79.6
46	Zfp367 (GeneID 238673)	1	29.2	42.9
47	Zfp367 (GeneID 238673)	2	70.4	81.2
48	Zfp367 (GeneID 238673)	3	88.1	60.8
49	Ddx49 (GeneID 234374)	1	87.9	89.7
50	Ddx49 (GeneID 234374)	2	94.1	114
51	Ddx49 (GeneID 234374)	3	71.2	99.4
52	Camk2d (GeneID 108058)	1	88.2	78.3
53	Cog8 (GeneID 97484)	1	106	120
54	Cog8 (GeneID 97484)	2	87.8	79.4
55	Pcdha3 (GeneID 192163)	1	70.4	58.6
56	Pcdha3 (GeneID 192163)	2	69.1	35.7
57	Pcdha3 (GeneID 192163)	3	69	79.4

Records above called active, once more:
gene	reagent	GFP, % of control	viability (ATP), % of control
Slc35a2 (GeneID 22232)	1	147 (active)	72.6
6030445D17Rik (GeneID 320133)	3	120 (active)	124

Continued:
no.	gene	reagent	GFP, % of control	viability (ATP), % of control
58	Gpr142 (GeneID 217302)	1	74.5	45.6
59	Gpr142 (GeneID 217302)	2	110	76.4
60	Gpr142 (GeneID 217302)	3	86.8	89.9
61	Kif12 (GeneID 16552)	1	90.8	61.6
62	Kif12 (GeneID 16552)	2	96.9	36.8
63	Kynu (GeneID 70789)	1	125 (active)	31.7
64	Kynu (GeneID 70789)	2	99.5	87.1
65	Kynu (GeneID 70789)	3	62.9	48.5
66	Dbx2 (GeneID 223843)	1	82.1	76.5
67	Dbx2 (GeneID 223843)	2	88.5	66.1
68	Dbx2 (GeneID 223843)	3	86.1	101
69	H2ac6 (GeneID 319164)	1	115	64.6
70	H2ac6 (GeneID 319164)	2	91.7	90
71	H2ac6 (GeneID 319164)	3	85.3	108
72	Cldn14 (GeneID 56173)	1	72.6	78.2
73	Cldn14 (GeneID 56173)	2	53.7	65.4
74	Cldn14 (GeneID 56173)	3	103	115
75	Ifi27l2a (GeneID 76933)	1	97.5	62.7
76	Ifi27l2a (GeneID 76933)	2	57	36.1
77	Ifi27l2a (GeneID 76933)	3	78.7	80.6
78	Sprr2i (GeneID 20763)	1	74.6	76.9
79	Sprr2i (GeneID 20763)	2	68.2	82.3
80	Sprr2i (GeneID 20763)	3	164 (active)	153
81	Wrap73 (GeneID 59002)	1	79.4	57.1
82	Wrap73 (GeneID 59002)	2	64.6	70.9
83	Wrap73 (GeneID 59002)	3	77	88.5
84	Lsamp (GeneID 268890)	1	126 (active)	84.2
85	Lsamp (GeneID 268890)	2	56.5	53.8
86	Tnfrsf23 (GeneID 79201)	1	82.4	53.6
87	Tnfrsf23 (GeneID 79201)	2	113	96
88	Tnfrsf23 (GeneID 79201)	3	20.3	42.3
89	Trappc2 (GeneID 66226)	1	50	57.5
90	Trappc2 (GeneID 66226)	2	80.6	91.6
91	Trappc2 (GeneID 66226)	3	68.9	71.9
92	Mgst2 (GeneID 211666)	1	109	79.7
93	Mgst2 (GeneID 211666)	2	73.5	77.7
94	Mgst2 (GeneID 211666)	3	115	74.3
95	Rbm25 (GeneID 67039)	1	43.6	56.7
96	Rbm25 (GeneID 67039)	2	63.8	66.3
97	Rbm25 (GeneID 67039)	3	39.9	49.2
98	Bak1 (GeneID 12018)	1	88.9	81.3
99	Bak1 (GeneID 12018)	2	80.4	53.2
100	Tmem126b (GeneID 68472)	1	62.5	47.8
101	Tmem126b (GeneID 68472)	2	53	65.5
102	Tmem126b (GeneID 68472)	3	131 (active)	120
103	Six5 (GeneID 20475)	1	116	104
104	Six5 (GeneID 20475)	2	69.4	83.7
105	Six5 (GeneID 20475)	3	89.9	118
106	Stard3nl (GeneID 76205)	1	47.7	66.2
107	Stard3nl (GeneID 76205)	2	81.5	88.7
108	Stard3nl (GeneID 76205)	3	55.4	55.6
